In patent EP0180850A2, “Antimycotic azolyl-methyl-cyclopropyl-carbinol derivatives” (BAYER AG, priority 1984, dated 1986):
The name of at least one read-out is uncertain.

test system: Candida-Zellen; assay: Antimycotic in-vivo activity (oral) in mouse candidosis; parameters: species or system Mäuse vom Typ SPF-CF1; settings: text statement 'gute bis sehr gute Wirkung'; oral 10 to 100 mg/kg one hour before and seven hours after infection
Experimental: Versuchsbeschreibung: • Mäuse vom Typ SPF-CF1 wurden intravenös mit-1-2 x 10^6 logarithmisch wachsenden Candida-Zellen, die in physiologischer Kochsalzlösung suspendiert werden, infiziert. Eine Stunde vor und sieben Stunden nach der Infektion werden die Tiere mit jeweils 10 bis 100 mg/kg Körpergewicht der Präparate oral behandelt.
Unbehandelte Tiere starben am 3. bis 6. Tag post infektionem. Die Überlebensrate am 6. Tag post infektionem betrug bei unbehandelten Kontrolltieren etwa 5 %.

| Compound | Überlebende am 6. Tag p.i. |
| --- | --- |
| CCSC1(C(O)(Cn2cncn2)c2ccc(Cl)cc2)CC1 (centres unmarked) [I-1, 1-(4-Chlorphenyl)-1-[1-(ethylthio)-1-cyclopropyl]-2-(1,2,4-triazol-1-yl)-1-ethanol] | 60% |
| OC(Cn1cncn1)(c1ccccc1)C1(Oc2ccc(Cl)cc2)CC1 (centres unmarked) [I-2] | 60% |
| CC[S+]([O-])C1(C(O)(Cn2cncn2)c2ccc(Cl)cc2)CC1 (centres unmarked) [I-3, 1-(4-Chlorphenyl)-1-[1-(ethylsulfinyl)-1-cyclopropyl]-2-(1,2,4-triazol-1-yl)-1-ethanol] | 60% |
| CCS(=O)(=O)C1(C(O)(Cn2cncn2)c2ccc(Cl)cc2)CC1 (centres unmarked) [I-4] | 60% |
| OC(Cn1cncn1)(c1ccc(Cl)cc1)C1(Oc2ccccc2)CC1 (centres unmarked) [I-5] | 60% |
| CCCCSC1(C(O)(Cn2cncn2)c2ccc(Cl)cc2)CC1 (centres unmarked) [I-6] | 60% |
| CCCCS(=O)(=O)C1(C(O)(Cn2cncn2)c2ccc(Cl)cc2)CC1 (centres unmarked) [I-7] | 60% |
| OC(Cn1cncn1)(c1ccc(Cl)cc1)C1(SCc2ccc(Cl)cc2)CC1 (centres unmarked) [I-13] | 60% |
